The values below come from paper PMC5833440.

By UniProt entry, the sequences of proteins in these tests, tags left out.
UniProt O88498: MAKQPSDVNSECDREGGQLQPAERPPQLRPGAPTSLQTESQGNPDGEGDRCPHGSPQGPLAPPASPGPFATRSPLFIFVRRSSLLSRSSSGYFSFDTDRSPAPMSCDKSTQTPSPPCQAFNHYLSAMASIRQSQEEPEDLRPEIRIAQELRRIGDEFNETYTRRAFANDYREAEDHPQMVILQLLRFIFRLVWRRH

These are yes or no findings as the source states them, for the method shown. In cells and extracts the contact can be indirect. Some results given as binding are weak or reduced against the parent protein; the word gives no strength.

For experiment [1], the target named is Bim (rat (endogenous in primary ONH astrocytes)) (UniProt O88498). Nature of the experiment: condition: only cells treated with forskolin (10 uM) plus H89 (10 uM) for 1 h; co-IP; as a1, but ONH astrocytes treated with forskolin (10 uM) plus the PKA inhibitor H89 (10 uM) for 1 h.
For experiment [2] the target is unchanged. Nature of the experiment: co-IP; lysates of primary rat ONH astrocytes treated with forskolin (10 uM) for 1 h (untreated and H89 alone also in the panel); co-IP lysis buffer (20 mM Tris-Cl pH 7.4, 135 mM NaCl, 1.5 mM MgCl2, 1 mM EGTA, 10% glycerol, 1% Triton X-100); IP with rabbit polyclonal anti-Bim and Protein A/G PLUS-Agarose, blot for Bcl-xL.

Regarding Bcl-xL (from UniProt P53563-1 1-233), the binding result in experiment [1] is “no binding”; in experiment [2], “binds”.
